Substitutions are numbered along the chain they refer to. These are yes or no findings as the source states them, for the method shown. Some entries that bind do so weakly or less than the wild type.

T1: polypeptide corresponding to the CMV gp116 epitope AD2 site (CMV)
T1 sequence (peptide): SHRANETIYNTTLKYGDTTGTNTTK

B1: 2F10 human anti-CMV antibody (antibody, V domains shown)
VH: QVHLVESGGGVVQPGRALRLSCAATGFTFSNHGIHWVRQAPGKGLEWLAVISSDGDDDRYADSVKGRFSVSRDNSKNTVHLQMNGLRPDDTAIYFCARDGRCGEPKCYSGLPDYWGRGTLVTVSS
VL: EIVLTQSPATLSLSPGDRATLSCRASQSVGGYLAWYQQKPGQAPRLLLYDASNRATGIPARFSGSGSGTDFTLTISSLEPEDFALYYCLQRNTWPPLTFGGGTKVEIKR
B2: 2N9 human anti-CMV antibody (antibody, V domains shown)
VH: QVQLVESGGGVVQPGRSLRLSCAASGFTFSSNGIHWVRQAPGKGLDWVAVISSDANDKQYADSVKGRFTISRDNSKNMVYLQMNSLRVEDTAVYFCARDGTCSGGNCYSGLIDYWGRGILVTVSS
VL: B1 VL with D17E, L48I, N53I, L85V, L89H, N92S, T93N, E106D
B3: 4P12 human anti-CMV antibody (antibody, V domains shown)
VH: QVQLVESGGGVIQPGRSLRLSCVASKFIFSNHGIHWVRQAPGKGLEWVAVISKDGTNAHYADSVRGRFSISRDNSKDTVFLEMRSLRPEDTAVYYCAREGRCIEENCYSGQIDYWGQGSLVTVSS
VL: EILLTQSPATLSLSPGERATLSCRASQSVGRYMAWYQQRPGQAPRLLIYDASIRATGIPARFSGSGSGTDFTLTISSLQPEDFAIYYCQQRSSWPPLTFGGGTKVEIKR

For the assay, the target named is T1, polypeptide corresponding to the CMV gp116 epitope AD2 site (CMV). The assay can be described thus: ELISA on UV-inactivated CMV virus with the AD2 peptide as soluble competitor. (In general: In an ELISA, binding on a coated surface is turned into a signal by an enzyme label.)
Consider B1, for which the binding entry is on record as “binds”. Next, B2: “binds”; B3: “binds”.

For the origin of these results see US20120263734A1.
